From PMC8862006
Where two headings read alike, the source gives them in different places. These are yes or no findings as the source states them, for the method shown. Binding seen in cells or lysates may run through a third protein. Some binding calls cover weakened binding; strength is not graded here.

Amino acid sequences for entries named in this document (tags omitted).
UniProt P03071: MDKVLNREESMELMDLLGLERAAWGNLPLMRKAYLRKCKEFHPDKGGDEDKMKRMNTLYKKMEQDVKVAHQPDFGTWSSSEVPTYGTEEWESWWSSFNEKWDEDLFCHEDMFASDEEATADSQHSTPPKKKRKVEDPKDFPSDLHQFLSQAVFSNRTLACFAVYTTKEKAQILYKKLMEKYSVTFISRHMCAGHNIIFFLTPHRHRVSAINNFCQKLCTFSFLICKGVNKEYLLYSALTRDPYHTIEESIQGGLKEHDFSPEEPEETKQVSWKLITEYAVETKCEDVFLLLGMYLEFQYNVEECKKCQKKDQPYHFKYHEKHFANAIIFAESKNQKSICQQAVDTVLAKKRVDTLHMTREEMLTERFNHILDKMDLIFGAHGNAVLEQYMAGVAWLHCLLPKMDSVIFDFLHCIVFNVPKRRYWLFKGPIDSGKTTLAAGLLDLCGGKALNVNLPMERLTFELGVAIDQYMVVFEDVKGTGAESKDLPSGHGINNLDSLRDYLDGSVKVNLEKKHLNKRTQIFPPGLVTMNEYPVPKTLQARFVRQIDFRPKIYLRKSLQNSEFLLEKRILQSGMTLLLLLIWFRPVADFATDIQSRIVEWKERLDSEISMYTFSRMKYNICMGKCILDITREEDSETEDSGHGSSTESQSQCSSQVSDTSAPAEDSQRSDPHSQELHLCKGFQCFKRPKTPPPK
UniProt Q06609: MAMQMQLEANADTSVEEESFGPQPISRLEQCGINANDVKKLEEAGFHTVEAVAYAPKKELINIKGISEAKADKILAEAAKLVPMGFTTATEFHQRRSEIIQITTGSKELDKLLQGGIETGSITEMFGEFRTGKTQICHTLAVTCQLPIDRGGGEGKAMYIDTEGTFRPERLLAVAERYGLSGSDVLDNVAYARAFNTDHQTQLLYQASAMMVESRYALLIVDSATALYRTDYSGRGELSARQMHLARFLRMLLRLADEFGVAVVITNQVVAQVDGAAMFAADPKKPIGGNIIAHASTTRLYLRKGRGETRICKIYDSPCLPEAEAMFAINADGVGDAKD

What was measured:
[1] = molecular target: BK polyomavirus (BKPyV) Large T antigen (BK polyomavirus (Dunlop strain)) (UniProt P03071); experiment: proximity ligation; Duolink In Situ Red kit; BKPyV-infected differentiated NHU cell cultures on glass 12-well slides, fixed in 10% neutral buffered formalin, permeabilised in PBS with 0.5% Triton X-100
[2] = molecular target: BK polyomavirus (BKPyV) Large T antigen (BK polyomavirus (Dunlop strain)) (UniProt P03071); experiment: as above; remark: listed apart in the source

Molecule | binding [1] | binding [2]
Rad51 (from UniProt Q06609 1-339) | binds | –
phospho-Retinoblastoma protein (protein, UniProt P06400 1-928, phosphorylated (phospho-pRb)) MPPKTPRKTAATAAAAAAEPPAPPPPPPPEEDPEQDSGPEDLPLVRLEFEETEEPDFTALCQKLKIPDHVRERAWLTWEKVSSVDGVLGGYIQKKKELWGICIFIAAVDLDEMSFTFTELQKNIEISVHKFFNLLKEIDTSTKVDNAMSRLLKKYDVLFALFSKLERTCELIYLTQPSSSISTEINSALVLKVSWITFLLAKGEVLQMEDDLVISFQLMLCVLDYFIKLSPPMLLKEPYKTAVIPINGSPRTPRRGQNRSARIAKQLENDTRIIEVLCKEHECNIDEVKNVYFKNFIPFMNSLGLVTSNGLPEVENLSKRYEEIYLKNKDLDARLFLDHDKTLQTDSIDSFETQRTPRKSNLDEEVNVIPPHTPVRTVMNTIQQLMMILNSASDQPSENLISYFNNCTVNPKESILKRVKDIGYIFKEKFAKAVGQGCVEIGSQRYKLGVRLYYRVMESMLKSEEERLSIQNFSKLLNDNIFHMSLLACALEVVMATYSRSTSQNLDSGTDLSFPWILNVLNLKAFDFYKVIESFIKAEGNLTREMIKHLERCEHRIMESLAWLSDSPLFDLIKQSKDREGPTDHLESACPLNLPLQNNHTAADMYLSPVRSPKKKGSTTRVNSTANAETQATSAFQTQKPLKSTSLSLFYKKVYRLAYLRLNTLCERLLSEHPELEHIIWTLFQHTLQNEYELMRDRHLDQIMMCSMYGICKVKNIDLKFKIIVTAYKDLPHAVQETFKRVLIKEEEYDSIIVFYNSVFMQRLKTNILQYASTRPPTLSPIPHIPRSPYKFPSSPLRIPGGNIYISPLKSPYKISEGLPTPTKMTPRSRILVSIGESFGTSEKFQKINQMVCNSDRVLKRSAEGSNPPKPLKKLRFDIEGSDEADGSKHLPGESKFQQKLAEMTSTRTRMQKQKMNDSMDTSNKEEK | – | binds
